This data set deals with mice. Conditions: mouse, in vivo. The protocol: Physical dependency liability was evaluated in mice by the procedure of Saelens, et al., Arch. Int. Pharmacodynam, 190:213-218, 1971. In this procedure, mice are administered increasing doses of a test compound at intervals on two consecutive days. The last dosage on the second day is followed by intraperitoneal injection of the morphine antagonist, naloxone, at a dosage of 100 mg/kg, and the mice are observed for characteristic jumping behaviour indicative of opiate withdrawals or morphine antagonism. […].

The text below walks through data of patent US4315010A, “Glaucine phosphate salts” (priority 1979, dated 1982).

In the case of `CN1CC[C@]23c4c5ccc(O)c4O[C@H]2[C@@H](O)C=C[C@H]3[C@H]1C5.O=S(=O)(O)O` [morphine sulfate], the “mice jumping after naloxone treatment” value is listed as 5 of 9.
